Assay results reported in ChEMBL document CHEMBL1135202, “Design, synthesis and evaluation of 4-imidazolylflavans as new leads for aromatase inhibition” (Bioorg Med Chem Lett, 2002).

Experiments:
Parameters in all cases: species or system Placenta
[1] = biological target: T1, Aromatase (Homo sapiens, UniProt P11511); assay: Relative potency for aromatase inhibition in human placental microsomes compared to aminoglutethimide
T1 sequence (P11511 whole entry): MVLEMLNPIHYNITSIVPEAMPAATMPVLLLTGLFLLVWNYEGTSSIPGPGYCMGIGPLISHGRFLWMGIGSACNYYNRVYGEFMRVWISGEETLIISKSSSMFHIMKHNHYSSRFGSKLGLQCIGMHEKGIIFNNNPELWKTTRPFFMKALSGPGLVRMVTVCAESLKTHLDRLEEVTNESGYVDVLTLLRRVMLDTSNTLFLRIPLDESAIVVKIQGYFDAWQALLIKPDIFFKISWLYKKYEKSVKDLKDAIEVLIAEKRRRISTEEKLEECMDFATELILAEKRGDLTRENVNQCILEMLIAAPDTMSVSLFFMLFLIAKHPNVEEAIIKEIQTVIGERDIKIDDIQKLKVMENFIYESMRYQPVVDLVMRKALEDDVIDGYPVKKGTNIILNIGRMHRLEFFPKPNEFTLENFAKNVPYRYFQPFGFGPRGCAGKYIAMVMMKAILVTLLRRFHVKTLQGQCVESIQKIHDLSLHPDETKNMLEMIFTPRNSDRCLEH

[2] = biological target: T1, Aromatase; assay: Relative potency for aromatase inhibition in human placental microsomes compared to flavanone
[3] = biological target: T1, Aromatase; assay: Inhibition of aromatase activity in human placental microsomes

## COc1ccc2c(c1)OC(c1ccccc1)CC2n1ccnc1 (stereo not drawn)
[1]
  Relative potency: 57
[2]
  Relative potency: 88
[3]
  IC50: 91 nM
